Like-named read-outs stand apart in the source and are kept apart here. For at least one compound, name, drawing or mass did not settle the structure.
Test system: ET-1-induced pain in the rat plantar hindpaw
Assay type: in vivo
From the text: These examples are provided to illustrate the invention and should not be construed as limiting. ETA and ETB Receptors Mediate ET-1-induced Pain in the Rat Plantar Hindpaw An ET-1 animal model of acute pain was used to investigate the signaling pathways involved in endothelin receptor-mediated nociception. In this model system, acute pain was induced under sevoflurane anesthesia by subcutaneous ET-1 injection into the rat plantar hindpaw after 40 seconds of limb cooling. Injections were given either as a single 20 μl bolus for single compound or co-administration studies, or as two 10 μl injections separated by 1-2 minutes for pre-treatment studies, and were delivered into the mid plantar paw approximately 1 cm distal to the heel. Repetitive and spontaneous flinching of the ipsilateral hindpaw were counted in 5 minute blocks, beginning 5 minutes after ET-1 injection, for 75 minutes. […] Data was reported as the mean±s.e.m.

SMILES: COc1ccc2c(c[n+](C)c3c4cc5c(cc4ccc23)OCO5)c1OC [CL, Chelerythrine chloride]
- effect on ET-1 evoked flinching behavior (0.1 μg CL two minutes prior to ET-1 (2 nmol)): without effect
- effect on ET-1 evoked flinching behavior (0.5 μg CL two minutes prior to ET-1 (2 nmol)): significant increase in ET-1 evoked flinching behavior

— patent US20040176274A1, “Analgesic methods using endothelin receptor ligands” (priority 2001, published 2004)
